The source of these data is PMC10352605.

Protein sequences, listed by entry. Tags and fused reporters are not part of them. Lines headed by an entry give the natural chain unless they say otherwise; changes in a name come on top. Residues count along the entry.
UniProt P04198: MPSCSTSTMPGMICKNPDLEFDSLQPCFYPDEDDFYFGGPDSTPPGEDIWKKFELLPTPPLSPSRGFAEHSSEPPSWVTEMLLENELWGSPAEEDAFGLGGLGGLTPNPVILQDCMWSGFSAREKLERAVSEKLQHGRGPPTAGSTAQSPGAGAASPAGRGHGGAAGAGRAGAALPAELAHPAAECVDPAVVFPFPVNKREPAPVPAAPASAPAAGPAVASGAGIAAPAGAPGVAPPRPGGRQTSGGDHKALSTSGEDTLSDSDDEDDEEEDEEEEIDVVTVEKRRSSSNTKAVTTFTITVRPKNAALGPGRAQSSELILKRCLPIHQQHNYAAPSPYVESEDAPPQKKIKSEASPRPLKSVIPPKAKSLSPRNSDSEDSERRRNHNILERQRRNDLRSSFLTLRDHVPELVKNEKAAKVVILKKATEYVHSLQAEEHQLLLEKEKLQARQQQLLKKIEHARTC
AA 48 to 89 of HA-MYCN: residues 48-89 of P04198
UniProt Q969H0: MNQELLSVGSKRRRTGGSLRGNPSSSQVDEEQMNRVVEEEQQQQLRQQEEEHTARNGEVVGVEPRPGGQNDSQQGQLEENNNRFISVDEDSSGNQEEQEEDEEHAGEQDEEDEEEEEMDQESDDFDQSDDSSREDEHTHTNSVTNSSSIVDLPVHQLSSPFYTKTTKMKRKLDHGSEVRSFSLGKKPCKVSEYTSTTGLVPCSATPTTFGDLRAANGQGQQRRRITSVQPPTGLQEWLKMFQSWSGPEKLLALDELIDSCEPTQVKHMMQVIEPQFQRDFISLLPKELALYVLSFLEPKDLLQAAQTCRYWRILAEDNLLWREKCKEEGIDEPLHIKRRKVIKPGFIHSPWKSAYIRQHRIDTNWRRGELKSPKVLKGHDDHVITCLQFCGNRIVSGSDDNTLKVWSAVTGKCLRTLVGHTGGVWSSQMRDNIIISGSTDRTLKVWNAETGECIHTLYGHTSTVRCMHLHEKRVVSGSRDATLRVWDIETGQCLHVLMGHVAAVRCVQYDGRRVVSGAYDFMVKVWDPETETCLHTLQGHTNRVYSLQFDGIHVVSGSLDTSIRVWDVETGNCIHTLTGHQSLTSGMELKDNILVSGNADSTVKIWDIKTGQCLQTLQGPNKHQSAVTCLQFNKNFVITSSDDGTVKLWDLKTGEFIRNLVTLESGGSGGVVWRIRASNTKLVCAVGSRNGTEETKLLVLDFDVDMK

No constants are given. Whether binding was seen depends on the method and setting. In cells and extracts the contact can be indirect. Some entries that bind do so weakly or less than the wild type. For some of these results: Where a sequence is shown, tags or fusion partners need not be part of it.

The target of test [1] is MYCN (co-IP of Figure 8B and Figure S8) (UniProt P04198). Put plainly: co-IP; FBXW7-MYCN co-IP with graded exogenous expression of CCNB1IP1 (Figure 8B,C) or knockdown of CCNB1IP1 (Figure S8); cells not named.
Test [2] addresses HA-tagged MYCN WT (UniProt P04198). Put plainly: co-IP; HEK293T cells co-transfected with HA-MYCN WT, MYCN^△48-89 or MYCN^48-89, Myc-FBXW7, alone or together with Flag-CCNB1IP1 WT or M4 (competitive binding); immunoblot. A general note: A western blot detects proteins with antibodies after separation by electrophoresis.
The next test concerns the target AA 48 to 89 of HA-MYCN (UniProt P04198). Described as above.
Test [3] has as its target MYCN (endogenous, MYCN-amplified neuroblastoma cells) (human (endogenous in BE(2)M17 and IMR-32)) (UniProt P04198). Briefly: co-IP; endogenous proteins; anti-MYCN antibody on magnetic beads, IgG as negative control; lysates of BE(2)M17 and IMR-32 cells; immunoblot.
Test [4] deals with HA-tagged MYCN WT (UniProt P04198). Put plainly: co-IP; HEK293T cells transfected with HA-MYCN and Flag-CCNB1IP1 WT or truncated mutants M1-M4, each separately; immunoblot.

“FBXW7 (co-IP of Figure 8B and Figure S8) (from UniProt Q969H0 1-707)”: the binding entry in test [1] is reported as “binds”.
Take “Myc-tagged FBXW7 WT (from UniProt Q969H0 1-707)”: the binding entry with HA-tagged MYCN WT [2] and with AA 48 to 89 of HA-MYCN was “binds” each time.

B1: cyclin B1 interacting protein 1 (endogenous, MYCN-amplified neuroblastoma cells) (protein, UniProt Q9NPC3 1-277)
chain: MSLCEDMLLCNYRKCRIKLSGYAWVTACSHIFCDQHGSGEFSRSPAICPACNSTLSGKLDIVRTELSPSEEYKAMVLAGLRPEIVLDISSRALAFWTYQVHQERLYQEYNFSKAEGHLKQMEKIYTQQIQSKDVELTSMKGEVTSMKKVLEEYKKKFSDISEKLMERNRQYQKLQGLYDSLRLRNITIANHEGTLEPSMIAQSGVLGFPLGNNSKFPLDNTPVRNRGDGDGDFQFRPFFAGSPTAPEPSNSFFSFVSPSRELEQQQVSSRAFKVKRI
Take B1: in test [3], the binding result is on record as “binds”.

B2: Flag-tagged CCNB1IP1 WT (protein, UniProt Q9NPC3 1-277)
chain: MSLCEDMLLCNYRKCRIKLSGYAWVTACSHIFCDQHGSGEFSRSPAICPACNSTLSGKLDIVRTELSPSEEYKAMVLAGLRPEIVLDISSRALAFWTYQVHQERLYQEYNFSKAEGHLKQMEKIYTQQIQSKDVELTSMKGEVTSMKKVLEEYKKKFSDISEKLMERNRQYQKLQGLYDSLRLRNITIANHEGTLEPSMIAQSGVLGFPLGNNSKFPLDNTPVRNRGDGDGDFQFRPFFAGSPTAPEPSNSFFSFVSPSRELEQQQVSSRAFKVKRI
As for B2, the binding result in the test with AA 48 to 89 of HA-MYCN and with HA-tagged MYCN WT [4] was “binds” in each case.

B3: exogenously expressed CCNB1IP1 (co-IP of Figure 8B) (protein, UniProt Q9NPC3 1-277)
chain: MSLCEDMLLCNYRKCRIKLSGYAWVTACSHIFCDQHGSGEFSRSPAICPACNSTLSGKLDIVRTELSPSEEYKAMVLAGLRPEIVLDISSRALAFWTYQVHQERLYQEYNFSKAEGHLKQMEKIYTQQIQSKDVELTSMKGEVTSMKKVLEEYKKKFSDISEKLMERNRQYQKLQGLYDSLRLRNITIANHEGTLEPSMIAQSGVLGFPLGNNSKFPLDNTPVRNRGDGDGDFQFRPFFAGSPTAPEPSNSFFSFVSPSRELEQQQVSSRAFKVKRI
On to B3, for which the binding entry in test [1] was “binds”.
